Results are given in words; binding and its absence hold for the method and conditions named. Where a sequence is shown, tags or fusion partners need not be part of it.

In the assay the target is T1, GFP-CTCF (mouse CTCF, from pEGFP-mCTCF) (mouse) (UniProt Q61164).
T1 sequence: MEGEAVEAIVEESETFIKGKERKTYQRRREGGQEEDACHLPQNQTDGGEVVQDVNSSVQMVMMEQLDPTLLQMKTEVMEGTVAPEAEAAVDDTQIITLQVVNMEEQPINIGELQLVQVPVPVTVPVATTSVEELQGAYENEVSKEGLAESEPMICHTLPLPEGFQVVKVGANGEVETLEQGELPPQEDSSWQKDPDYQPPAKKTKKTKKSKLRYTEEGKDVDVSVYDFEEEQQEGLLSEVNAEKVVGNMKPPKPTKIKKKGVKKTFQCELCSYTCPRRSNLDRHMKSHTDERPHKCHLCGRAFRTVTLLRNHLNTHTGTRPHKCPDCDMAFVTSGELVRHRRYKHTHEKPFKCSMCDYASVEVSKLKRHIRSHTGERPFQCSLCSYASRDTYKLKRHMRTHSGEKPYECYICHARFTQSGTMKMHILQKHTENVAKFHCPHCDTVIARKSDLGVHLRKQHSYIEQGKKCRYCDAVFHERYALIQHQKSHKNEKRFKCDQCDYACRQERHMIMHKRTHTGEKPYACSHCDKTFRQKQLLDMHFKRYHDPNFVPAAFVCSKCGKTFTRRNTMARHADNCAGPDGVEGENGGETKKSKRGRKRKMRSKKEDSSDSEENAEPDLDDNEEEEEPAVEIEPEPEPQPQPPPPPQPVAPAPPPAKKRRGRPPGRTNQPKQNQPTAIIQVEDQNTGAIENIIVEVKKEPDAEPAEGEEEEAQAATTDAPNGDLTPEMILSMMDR
The experiment in a line: condition: GFP-CTCFL at 1-, 2-, 5- and 10-fold compared to GFP-CTCF; native gel or EMSA; band shift with nuclear extracts on radiolabelled Prss50 and Stra8 probes, probe-limiting concentrations; 10 ug CTCF nuclear extract, GFP-CTCFL extract added in increasing amounts (1-, 2-, 5- and 10-fold); 25 °C, 20 mM HEPES pH 7.5, 50 mM KCl; 4% polyacrylamide gel. In general terms: In EMSA bound probe runs differently from free probe, usually more slowly.

B1: GFP-CTCFL (mouse CTCF-like protein, from pEGFP-mCTCFL) (protein, UniProt A2APF3 1-636)
chain: MAAAEVPVPSGYFTQIKEQKLKPGDLEEEKEEDGVQRVEAQEGVVKEVEAENSCLLLEARAPVESDRRILTLQTVHLESQDVHLQGLGWLSVPHSEELSGTVPEAEGILQLPSVLWLDPEPQLSLQHCVTVSIPEELYPPEELQRIHFHLLRENVLMAEENPELTPDLDESTALKKPEEDEKDQLPPQGETDKREERLLLLEMKPKEGKDDEIVLTISHLSLEEQQDPPAANQTSVPGAKAAKPKRRRQTKGKPQSFQCDTCPFTSSKLSTFNRHIKIHSNERPHLCHLCLKAFRTVTLLRNHVNTHTGTRPHKCRDCDMAFVTSGELVRHRRYKHTYEKPFKCSLCKYASVEASKMKRHIRSHTGERPFQCCQCAYASRDSYKLKRHMRTHSGEKPYECPTCHVRFTQSGTMKIHIAQKHGENVPKYECPHCATIIARKSDLRVHLRNLHSQSPEEMKCRYCPAGFHERYALIQHQRTHKNEKKFKCKQCDYACKQERCLKAHMRMHTGEKPFSCLACNKHFRQKQLLTVHLRKYHDPNFVPNLHLCLKCDKRFSRWSNLQRHRKKCDPEHETLAPNKDRRPVTRTQASEGEAGHKEGEPQCPGEQALGHQGEAAGSQSPDHGLTCEIIFNMMDK
In the case of B1, the binding result was “no binding”.

For the origin of these results see paper PMC3418201.
